Experimental data as given in PubChem BioAssay AID1645883 (National Center for Advancing Translational Sciences (NCATS), 2021).
“And” between values parts separate entries of the source, which are not always exact repeats. Equal values may be shown once. What follows is the remainder of the data, with few or none of the hits. Records with an inconclusive call do not appear. The source made the active and inactive calls. The call rests on the fitted dose curve; in most records, active means well fitted activation curve with a large enough effect; inconclusive means small, poorly fitted or top-dose-only effect; inactive means no such curve, though single readings can be large or run the other way.

By UniProt entry, the sequences of proteins in these tests, tags left out. Where a name states a change or a piece, a line headed by the entry shows the natural chain unless it says otherwise.
UniProt O95398: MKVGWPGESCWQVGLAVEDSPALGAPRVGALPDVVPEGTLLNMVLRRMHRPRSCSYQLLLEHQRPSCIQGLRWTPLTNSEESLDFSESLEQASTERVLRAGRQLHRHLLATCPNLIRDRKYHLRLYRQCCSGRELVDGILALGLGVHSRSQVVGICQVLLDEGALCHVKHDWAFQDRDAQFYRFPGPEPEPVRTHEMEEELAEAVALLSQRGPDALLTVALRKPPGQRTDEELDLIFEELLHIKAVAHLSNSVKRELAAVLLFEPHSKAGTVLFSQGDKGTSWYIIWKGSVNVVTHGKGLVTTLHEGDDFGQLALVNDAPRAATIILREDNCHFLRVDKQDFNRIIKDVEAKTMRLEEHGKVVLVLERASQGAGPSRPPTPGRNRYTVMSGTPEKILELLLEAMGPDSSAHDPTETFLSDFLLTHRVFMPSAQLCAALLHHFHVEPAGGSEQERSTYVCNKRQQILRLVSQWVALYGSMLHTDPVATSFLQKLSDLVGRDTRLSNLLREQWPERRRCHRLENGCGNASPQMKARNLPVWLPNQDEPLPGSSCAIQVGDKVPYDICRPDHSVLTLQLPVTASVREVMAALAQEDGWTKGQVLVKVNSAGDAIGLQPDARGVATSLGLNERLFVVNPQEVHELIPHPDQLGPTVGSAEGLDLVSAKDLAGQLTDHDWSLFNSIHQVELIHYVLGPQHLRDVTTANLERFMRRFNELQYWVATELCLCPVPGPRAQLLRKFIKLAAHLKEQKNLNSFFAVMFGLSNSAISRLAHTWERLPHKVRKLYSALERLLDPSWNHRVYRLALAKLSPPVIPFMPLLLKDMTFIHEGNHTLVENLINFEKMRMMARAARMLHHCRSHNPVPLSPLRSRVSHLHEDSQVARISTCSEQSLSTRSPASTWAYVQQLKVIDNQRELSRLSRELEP

target: Rap guanine nucleotide exchange factor 3 (Homo sapiens) (UniProt O95398); test: Validation qHTS for agonist of cAMP-regulated guanine nucleotide exchange factor 3 (EPAC1); details: EPAC1 Rap1b BODIPY-GDP exchange, fluorescence; hits give high values; percent of cAMP control response; further: nearly all actives have a fitted effect of over 70% in size
Source text: Assay Provider (PI): Xiaodong Cheng Ph.D.
The University of Texas Medical Branch, […], TX
In multi-cellular eukaryotic organisms, the effects of cAMP are transduced by two ubiquitously-expressed intracellular cAMP receptors, the classic protein kinase A/cAMP-dependent protein kinase (PKA/cAPK) and the more recently discovered exchange protein directly activated by cAMP/cAMP-regulated guanine nucleotide exchange factor (EPAC/cAMP-GEF). Both PKA and EPAC are ubiquitously expressed in all tissues, and an increase in intracellular cAMP levels will lead to the activation of both PKA and EPAC. Therefore, careful dissections of the individual role and relative contribution of EPAC and PKA within the overall cAMP signaling in various model systems are critical for further elucidating the mechanism of cAMP signaling. To date no EPAC-specific antagonists and agonist, as well as isoform-specific agonists have been reported, and developing EPAC-specific pharmacological probes to determine the physiological functions that EPAC play in the overall cAMP-mediated signaling remains a major challenge within the research field. […]
This qHTS will be used to screen the Molecular Libraries Small Molecule Repository (MLSMR) as a concentration-titration series using the NCGC unique quantitative screening (qHTS) platform to find activators for EPAC1. […] Activators are identified by monitoring the change in fluorescence signal as the exchanged free BODIPY-GDP has a reduced fluorescence compared to Rap1-bound BODIPY-GDP. […]
Briefly, three uL of reagents (100 nM EPAC1, 250 nM RAP1B-BODIPY-GDP, 50 uM GDP) were dispensed into a 1536-well Greiner black solid-bottom medium binding assay plate. […] The assay plates were read at 5 minute intervals for 30 minutes in the ViewLux plate reader using 480nm excitation and 540nm emission filters. […]
On the % scale 0 is the no-effect control and ±100 the full control effect.

Max response, inactive:
Nc1ccc(N)c([N+](=O)[O-])c1 -8.35%
Cc1c(C(=O)NN2CCCCC2)nn(-c2ccc(Cl)cc2Cl)c1-c1ccc(I)cc1 19.4%
Cc1cccc(CCN2CCC(C(=O)c3ccc(NS(C)(=O)=O)cc3)CC2)n1 6.94% and -5.71% and -21.4%
